Taken from: PubChem BioAssay AID743454 (Peter MacCallum Cancer Centre, 2014)
Test: 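Search for knock-downs that restore vorinostat killing in resistant colon cancer cells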 (primary screen). Cell system: human HCT116-VR colon cancer cells, selected for vorinostat resistance. Knock-down reagent: siRNA pool against human genes, 40 nM siRNA pool. Timing: vorinostat for 24 h, read-out about 72 h after transfection. Conditions: vorinostat at 2.5 µM final. Measurement: 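Two measures, CellTiter-Fluor viability and luminescent caspase 3/7 activity, each as fold change against same-plate mock wells, mean of duplicates, then screen-wide robust z-score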. Reading the numbers: viability robust z-score: higher = more viable cells than screen typical; caspase robust z-score: higher = more caspase 3/7 activity than screen typical. Rule for the call: 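a knock-down is a hit when classed RV1 or RV2 for lowered viability, or CA1 or CA2 for caspase activation; those lethal without drug were dropped; hits were retested singly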.
The deposit covers about 18,000 reagents; shown is an unselected part. Over the whole deposit, 450 (2.5%) were called active. 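Single biological run; no consistent viability z cut-off exists, so the class columns, not z-scores, define the calls.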 No sequences are given here.

Target gene	viability hit class	caspase hit class	viability robust z-score	caspase robust z-score	Call
FOXA3 (forkhead box A3)	no change	no change	1.23	-0.25	inactive
ACAT1 (acetyl-CoA acetyltransferase 1)	no change	no change	0.56	-1.01	inactive
ATG9B (autophagy related 9B)	no change	no change	0.38	-0.76	inactive
ABAT (4-aminobutyrate aminotransferase)	no change	no change	1.43	-0.9	inactive
NOM1 (nucleolar protein with MIF4G domain 1)	no change	no change	-1.83	-0.62	inactive
PODXL2 (podocalyxin like 2)	no change	no change	-1.14	3.79	inactive
CACNB4 (calcium voltage-gated channel auxiliary subunit beta 4)	no change	no change	-1.25	1.9	inactive
ADGRE3 (adhesion G protein-coupled receptor E3)	no change	no change	-0.39	-0.6	inactive
PLCZ1 (phospholipase C zeta 1)	no change	no change	-0.13	0.8	inactive
COL21A1 (collagen type XXI alpha 1 chain)	no change	no change	0.4	-0.55	inactive
GLMP (glycosylated lysosomal membrane protein)	no change	no change	2.02	-1.01	inactive
PCDHB11 (protocadherin beta 11)	no change	no change	-0.66	1.62	inactive
SLC35F2	no change	no change	-0.02	1.52	inactive
NMT2 (N-myristoyltransferase 2)	no change	no change	1.33	0.64	inactive
B3GNT9	no change	no change	0.22	1.53	inactive
MPV17L (MPV17 mitochondrial inner membrane protein like)	no change	no change	-2.16	-0.15	inactive
DRD1 (dopamine receptor D1)	no change	no change	0.81	-0.18	inactive
ACACB (acetyl-CoA carboxylase beta)	no change	no change	1.18	-0.7	inactive
ZNF215 (zinc finger protein 215)	no change	no change	1.31	0.55	inactive
UTS2 (urotensin 2)	no change	no change	-0.12	-0.8	inactive
TRIM69 (tripartite motif containing 69)	no change	no change	-2.29	4.42	inactive
RHBDD1 (rhomboid domain containing 1)	no change	no change	0.26	-0.74	inactive
RFFL	no change	no change	-1.21	-1.25	inactive
SLC25A30	no change	no change	-0.62	-0.2	inactive
PGK2 (phosphoglycerate kinase 2)	no change	no change	1.21	-0.29	inactive
CENPS (centromere protein S)	no change	no change	0.88	0.5	inactive
ZIM2 (zinc finger imprinted 2)	no change	no change	0.28	-0.68	inactive
EPHB2 (EPH receptor B2)	no change	no change	1.01	3.24	inactive
FCRLA (Fc receptor like A)	no change	no change	0.45	0.37	inactive
STN1 (STN1 subunit of CST complex)	no change	CA2 (caspase activation)	-1.08	8.4	active
STAT1 (signal transducer and activator of transcription 1)	no change	no change	0.23	1.61	inactive
IFT52 (intraflagellar transport 52)	no change	no change	-0.58	0.04	inactive
AREL1 (apoptosis resistant E3 ubiquitin protein ligase 1)	no change	no change	0.25	0.07	inactive
PCDHGB7 (protocadherin gamma subfamily B, 7)	no change	no change	-0.4	-0.26	inactive
CYP2S1 (cytochrome P450 family 2 subfamily S member 1)	no change	no change	-1.2	1.9	inactive
RRP8 (ribosomal RNA processing 8)	no change	no change	-1.05	3.59	inactive
ZNF148 (zinc finger protein 148)	no change	no change	0.5	1.44	inactive
SLC2A5	no change	no change	0.08	1.85	inactive
NET1 (neuroepithelial cell transforming 1)	no change	no change	0.35	-0.52	inactive
SPATC1 (spermatogenesis and centriole associated 1)	no change	no change	0.26	-1.22	inactive
MAS1 (MAS1 proto-oncogene, G protein-coupled receptor)	no change	no change	1.01	1.86	inactive
ZNF33A (zinc finger protein 33A)	no change	no change	0.68	-0.02	inactive
ETV3L (ETS variant transcription factor 3 like)	no change	no change	-1.36	5	inactive
UGT2B4 (UDP glucuronosyltransferase family 2 member B4)	no change	no change	-0.2	-0.5	inactive
UBA5 (ubiquitin like modifier activating enzyme 5)	no change	no change	0.62	-0.41	inactive

An excerpt taken from the entries so far:
Target gene	viability hit class	caspase hit class	viability robust z-score	caspase robust z-score	Call
IFT52 (intraflagellar transport 52)	no change	no change	-0.58	0.04	inactive
AREL1 (apoptosis resistant E3 ubiquitin protein ligase 1)	no change	no change	0.25	0.07	inactive
PCDHGB7 (protocadherin gamma subfamily B, 7)	no change	no change	-0.4	-0.26	inactive
CYP2S1 (cytochrome P450 family 2 subfamily S member 1)	no change	no change	-1.2	1.9	inactive
RRP8 (ribosomal RNA processing 8)	no change	no change	-1.05	3.59	inactive
ZNF148 (zinc finger protein 148)	no change	no change	0.5	1.44	inactive
SLC2A5	no change	no change	0.08	1.85	inactive
NET1 (neuroepithelial cell transforming 1)	no change	no change	0.35	-0.52	inactive
SPATC1 (spermatogenesis and centriole associated 1)	no change	no change	0.26	-1.22	inactive
MAS1 (MAS1 proto-oncogene, G protein-coupled receptor)	no change	no change	1.01	1.86	inactive
ZNF33A (zinc finger protein 33A)	no change	no change	0.68	-0.02	inactive

Next reagents follow:
Target gene	viability hit class	caspase hit class	viability robust z-score	caspase robust z-score	Call
GPSM3 (G protein signaling modulator 3)	no change	no change	0.52	1.12	inactive
QRFPR (pyroglutamylated RFamide peptide receptor)	no change	no change	-0.26	-1.21	inactive
FAM20C (FAM20C golgi associated secretory pathway kinase)	no change	no change	1.12	-0.74	inactive
IL10RA (interleukin 10 receptor subunit alpha)	no change	no change	1.9	0.12	inactive
MRPL10 (mitochondrial ribosomal protein L10)	no change	no change	0.07	-1.14	inactive
ZNF155 (zinc finger protein 155)	no change	no change	-0.19	-0.26	inactive
EIF2B3 (eukaryotic translation initiation factor 2B subunit gamma)	no change	no change	-2.83	0.08	inactive
CYP8B1 (cytochrome P450 family 8 subfamily B member 1)	no change	no change	0.32	-0.06	inactive
LRRC41 (leucine rich repeat containing 41)	no change	no change	0.48	-0.81	inactive
MYH14 (myosin heavy chain 14)	no change	no change	0.52	-0.16	inactive
DSC1 (desmocollin 1)	no change	no change	0.36	0.55	inactive
CNPY3 (canopy FGF signaling regulator 3)	no change	no change	-1.46	-0.92	inactive
DPH2 (diphthamide biosynthesis 2)	no change	no change	0.94	-0.5	inactive
HSD11B2 (hydroxysteroid 11-beta dehydrogenase 2)	no change	no change	-1.9	-0.6	inactive
CGA (glycoprotein hormones, alpha polypeptide)	no change	no change	-0.35	2.05	inactive
POFUT3 (protein O-fucosyltransferase 3)	no change	no change	-0.75	1.52	inactive
DYNLL2 (dynein light chain LC8-type 2)	no change	no change	0.34	-0.49	inactive
CCDC33 (coiled-coil domain containing 33)	no change	no change	-0.18	-0.46	inactive
STYX (serine/threonine/tyrosine interacting protein)	no change	no change	0.24	-0.55	inactive
NGB (neuroglobin)	no change	no change	1.23	-0.15	inactive
TRMT1 (tRNA methyltransferase 1)	no change	no change	-1.73	4.19	inactive
TIMM10 (translocase of inner mitochondrial membrane 10)	no change	no change	0.48	0.04	inactive
CTCF (CCCTC-binding factor)	no change	no change	-3.18	1.28	inactive
TMEM61 (transmembrane protein 61)	no change	no change	-2.11	4.15	inactive
CNOT8 (CCR4-NOT transcription complex subunit 8)	no change	no change	0.44	-0.11	inactive
OR5W2 (olfactory receptor family 5 subfamily W member 2)	no change	no change	0.32	1.92	inactive
NUP37 (nucleoporin 37)	no change	no change	0.16	-0.5	inactive
ARSH (arylsulfatase family member H)	no change	no change	0.24	-0.14	inactive
